Experiment [1] addresses HA-tagged soluble E-cadherin (sEcad, 1-707aa) (human) (UniProt P12830). Nature of the experiment: co-IP.
The target in experiment [2] is Flag-XIAP (X-linked inhibitor of apoptosis protein) (UniProt P98170). Nature of the experiment: co-IP.

Protein sequences, listed by entry. Tags and fused reporters are not part of them.
UniProt P98170, whole entry: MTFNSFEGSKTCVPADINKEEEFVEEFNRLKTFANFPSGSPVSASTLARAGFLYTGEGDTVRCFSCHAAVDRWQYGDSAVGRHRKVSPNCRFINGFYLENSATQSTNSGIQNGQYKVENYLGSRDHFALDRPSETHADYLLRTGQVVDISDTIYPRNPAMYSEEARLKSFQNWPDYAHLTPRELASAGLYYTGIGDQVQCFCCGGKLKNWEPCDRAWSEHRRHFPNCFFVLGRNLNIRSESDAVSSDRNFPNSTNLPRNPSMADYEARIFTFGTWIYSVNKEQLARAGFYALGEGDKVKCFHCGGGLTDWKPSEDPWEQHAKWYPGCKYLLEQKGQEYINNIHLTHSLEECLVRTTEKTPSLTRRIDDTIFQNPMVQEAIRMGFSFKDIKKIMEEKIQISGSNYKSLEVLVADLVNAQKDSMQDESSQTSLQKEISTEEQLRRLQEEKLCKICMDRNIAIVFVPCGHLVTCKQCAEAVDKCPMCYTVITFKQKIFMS

No constants are given. Whether binding was seen depends on the method and setting. In cells and extracts the contact can be indirect. Binding can be weak; no strength is given.

Turning to “Flag-XIAP (X-linked inhibitor of apoptosis protein) (from UniProt P98170 1-497)”, the binding result in experiment [1] is “binds”.
For the substance “HA-tagged soluble E-cadherin (sEcad, 1-707aa) (from UniProt P12830) (domain or fragment)”, the binding entry in experiment [2] is listed as “binds”.

The values are drawn from paper doi:10.1101/2025.06.18.660428.
